# The supplement of paper PMC8728848
# The other results are listed elsewhere or left out.
# B1: PX9937I-bfa-538-26-538 (Bacteroides fragilis) (protein)
# chain: DKLDLSPIDYYGSGSYWKTEAQATAYIDGIHKHLRDAAWQHTITFGELRGGRFITGASSDGMGVSNGDIILQNFDETHTGVSKFGDLFGRITNLNLFIARVTDATYLSDEMKNFYLGEVYGLRAFYYFDLYRIYGGVPLRLTADVVEGVIDPNKLYMARSTPKEVMTQIKSDLNKSMEYFGNMNDFDPYKRGKKVYWSKAATECLMGEVYLWTSKVTTGDDVANPADLTIAKTHLESVLNNYNLKMLDDFSQVFNAKNKANDEIIFAIRFLEGEATNSNGTFTYNVGTGSTKNRYQANGEVFGDALDIQNTGNQTYEYNKAVYQNFDDADTRKEATFIASYNKDGKTGELSLYGTHVRKNIGYVNAQGARVYCGDYIFYRLPWVYLTLAEIANMEGDNAAVAKYINLVRKRAYGNAWDETLYAYPETADFTTNELAILHEKDKEFIQEGQRWWDLRRMTLTKGGTPLVFCKEGSLLGDAPILNKSTEAHKLLWPIEKTMLNKDPALEQTPGYK
# Assays:
# Assay in all cases: glycan array binding signal (z-score within array); higher = stronger binding
# Settings in all cases: glycan notation: IUPAC condensed, linker removed
# [1] = target: Neu5Ac(a2-6)GlcNAc(b1-4)GlcNAc(b1-4)GlcNAc
# Outline: (§1)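 Glycan array data came from 3228 arrays in the Consortium for Functional Glycomics database, and only arrays with an available protein sequence were kept. Glycan names were put into IUPAC-condensed notation, and columns mapping to the same glycan were averaged. The binding signal is a within-array Z-score, averaged across arrays of one protein sequence run at different concentrations or buffers and across linkers. A negative Z-score can be read as non-binding.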
# [2] = target: Neu5Ac(a2-8)Neu5Ac
# Outline: as §1
# [3] = target: Neu5Ac(a2-8)Neu5Ac(a2-3)Gal(b1-3)GalNAc(b1-4)[Neu5Ac(a2-3)]Gal(b1-4)Glc
# Outline: as §1
# [4] = target: Neu5Ac(a2-8)Neu5Ac(a2-3)Gal(b1-3)GalNAc(b1-4)[Neu5Ac(a2-8)Neu5Ac(a2-3)]Gal(b1-4)Glc
# Outline: as §1
# [5] = target: Neu5Ac(a2-8)Neu5Ac(a2-3)Gal(b1-4)Glc
# Outline: as §1
# [6] = target: Neu5Ac(a2-8)Neu5Ac(a2-3)Gal(b1-4)GlcNAc
# Outline: as §1
# [7] = target: Neu5Ac(a2-8)Neu5Ac(a2-3)[Gal(b1-3)GalNAc(b1-4)]Gal(b1-4)Glc
# Outline: as §1
# [8] = target: Neu5Ac(a2-8)Neu5Ac(a2-3)[GalNAc(b1-4)]Gal(b1-4)Glc
# Outline: as §1
# [9] = target: Neu5Ac(a2-8)Neu5Ac(a2-8)Neu5Ac
# Outline: as §1
# [10] = target: Neu5Ac(a2-8)Neu5Ac(a2-8)Neu5Ac(a2-3)Gal(b1-4)Glc
# Outline: as §1
# [11] = target: Neu5Ac(a2-8)Neu5Ac(a2-8)Neu5Ac(a2-3)[Gal(b1-3)GalNAc(b1-4)]Gal(b1-4)Glc
# Outline: as §1
# [12] = target: Neu5Ac(a2-8)Neu5Ac(a2-8)Neu5Ac(a2-3)[GalNAc(b1-4)]Gal(b1-4)Glc
# Outline: as §1
# [13] = target: Neu5Ac(a2-8)Neu5Ac(a2-8)Neu5Ac(a2-8)Neu5Ac(a2-3)[GalNAc(b1-4)]Gal(b1-4)Glc
# Outline: as §1
# [14] = target: Neu5Ac(a2-8)Neu5Gc(a2-3)Gal(b1-4)GlcNAc
# Outline: as §1
# [15] = target: Neu5Ac(b2-6)Gal(b1-4)GlcNAc
# Outline: as §1
# [16] = target: Neu5Ac(b2-6)GalNAc
# Outline: as §1
# [17] = target: Neu5Ac9Ac(a2-3)Gal(b1-3)GlcNAc
# Outline: as §1
# [18] = target: Neu5Ac9Ac(a2-3)Gal(b1-4)GlcNAc
# Outline: as §1
# [19] = target: Neu5Ac9Ac(a2-6)Gal(b1-4)GlcNAc
# Outline: as §1
# [20] = target: Neu5Gc(a2-3)Gal(b1-3)GlcNAc
# Outline: as §1
# [21] = target: Neu5Gc(a2-3)Gal(b1-3)[Fuc(a1-4)]GlcNAc
# Outline: as §1
# [22] = target: Neu5Gc(a2-3)Gal(b1-4)Glc
# Outline: as §1
# [23] = target: Neu5Gc(a2-3)Gal(b1-4)GlcNAc
# Outline: as §1
# [24] = target: Neu5Gc(a2-3)Gal(b1-4)GlcNAc(b1-3)Gal(b1-4)GlcNAc(b1-2)Man(a1-3)[Neu5Gc(a2-3)Gal(b1-4)GlcNAc(b1-3)Gal(b1-4)GlcNAc(b1-2)Man(a1-6)]Man(b1-4)GlcNAc(b1-4)GlcNAc
# Outline: as §1
# [25] = target: Neu5Gc(a2-3)Gal(b1-4)[Fuc(a1-3)]GlcNAc
# Outline: as §1
# [26] = target: Neu5Gc(a2-6)Gal(b1-4)GlcNAc
# Outline: as §1
# [27] = target: Neu5Gc(a2-6)GalNAc
# Outline: as §1
# [28] = target: Neu5Gc(a2-8)Neu5Ac(a2-3)Gal(b1-4)GlcNAc
# Outline: as §1
# [29] = target: Neu5Gc(a2-8)Neu5Gc(a2-3)Gal(b1-4)GlcNAc
# Outline: as §1
# [30] = target: Neu5Gc(a2-8)Neu5Gc(a2-3)Gal(b1-4)GlcNAc(b1-3)Gal(b1-4)GlcNAc
# Outline: as §1
# [31] = target: Neu5Gc(a2-8)Neu5Gc(a2-6)Gal(b1-4)GlcNAc
# Outline: as §1
# [32] = target: Neu5Gc(b2-6)Gal(b1-4)GlcNAc
# Outline: as §1
binder,measurement,setting,value
B1,glycan array binding signal (z-score),[1],0.288
same,glycan array binding signal (z-score),[2],-0.358
same,glycan array binding signal (z-score),[3],0.12
same,glycan array binding signal (z-score),[4],0.349
same,glycan array binding signal (z-score),[5],-0.76
same,glycan array binding signal (z-score),[6],-0.938
same,glycan array binding signal (z-score),[7],0.949
same,glycan array binding signal (z-score),[8],-0.034
same,glycan array binding signal (z-score),[9],-0.092
same,glycan array binding signal (z-score),[10],0.024
same,glycan array binding signal (z-score),[11],-0.352
same,glycan array binding signal (z-score),[12],0.094
same,glycan array binding signal (z-score),[13],-0.475
same,glycan array binding signal (z-score),[14],0.35
same,glycan array binding signal (z-score),[15],-0.137
same,glycan array binding signal (z-score),[16],-0.386
same,glycan array binding signal (z-score),[17],-0.793
same,glycan array binding signal (z-score),[18],-0.717
same,glycan array binding signal (z-score),[19],-0.293
same,glycan array binding signal (z-score),[20],0.425
same,glycan array binding signal (z-score),[21],-0.037
same,glycan array binding signal (z-score),[22],-0.086
same,glycan array binding signal (z-score),[23],-0.536
same,glycan array binding signal (z-score),[24],-0.051
same,glycan array binding signal (z-score),[25],0.378
same,glycan array binding signal (z-score),[26],-0.339
same,glycan array binding signal (z-score),[27],-0.122
same,glycan array binding signal (z-score),[28],-0.078
same,glycan array binding signal (z-score),[29],-0.476
same,glycan array binding signal (z-score),[30],-0.944
same,glycan array binding signal (z-score),[31],-0.156
same,glycan array binding signal (z-score),[32],-0.205

# Reprinted from the results shown for reference:
binder,measurement,setting,value
B1,glycan array binding signal (z-score),[5],-0.76
same,glycan array binding signal (z-score),[6],-0.938
same,glycan array binding signal (z-score),[7],0.949
same,glycan array binding signal (z-score),[8],-0.034
same,glycan array binding signal (z-score),[9],-0.092
same,glycan array binding signal (z-score),[10],0.024
